In experiment [1] the target is C-terminally His-tagged Arabidopsis VIPP1 (AtVIPP1-His), wild type, without its N-terminal transit peptide (Arabidopsis) (UniProt O80796). As to the kind of experiment: sucrose density gradient centrifugation; 2 μg recombinant protein on a continuous 0.4-1.6 M sucrose gradient in 50 mM HEPES-NaOH pH 7.5, 50 mM KCl; 85,000 x g, 15 h, 4°C; 25 fractions from top to bottom, immunoblot with anti-VIPP1; both purified.

The target is the same in experiment [2]. The experiment is described as follows: negative staining electron microscopy; purified AtVIPP1-His proteins (3.5-5.5 μg/μL) on carbon-stabilized grids, stained with 2% uranyl acetate or EM stainer, transmission EM; both purified.

No constants are given. Whether binding was seen depends on the method and setting. Some results given as binding are weak or reduced against the parent protein; the word gives no strength. Tags and fused reporters may be left off the sequences shown.

B1: C-terminally His-tagged Arabidopsis VIPP1 (AtVIPP1-His), wild type, without its N-terminal transit peptide (protein, UniProt O80796 65-330)
chain: CNGHGATMNLFERFSRVVKSYANALISSFEDPEKILEQTVIEMNSDLTKMRQATAQVLASQKQLQNKYKAAQQSSDDWYKRAQLALAKGDEDLAREALKRRKSFADNATALKTQLDQQKGVVDNLVSNTRLLESKIQEAKAKKDTLLARARTAKTATKVQEMIGTVNTSGALSAFEKMEEKVMAMESEADALTQIGTDELEGKFQMLETSSVDDDLADLKKELSGSSKKGELPPGRSTVAASTRYPFKDSEIENELNELRRKANDF
Consider B1, for which the binding entry in experiment [1] and in experiment [2] was “binds” in each case.
